In paper PMC12173945, “Import mechanism of peroxisomal proteins with an N-terminal signal sequence” (Nature Cell Biology, 2025) one finds binding data, which are given here for three molecules.

The chains behind the UniProt entries cited, without tags or fusion partners. Where a name states a change or a piece, a line headed by the entry shows the natural chain unless it says otherwise.
UniProt P47087: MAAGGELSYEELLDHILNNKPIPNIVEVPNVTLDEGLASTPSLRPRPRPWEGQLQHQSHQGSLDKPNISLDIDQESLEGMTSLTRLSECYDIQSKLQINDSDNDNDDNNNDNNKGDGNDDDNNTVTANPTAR
UniProt P27796: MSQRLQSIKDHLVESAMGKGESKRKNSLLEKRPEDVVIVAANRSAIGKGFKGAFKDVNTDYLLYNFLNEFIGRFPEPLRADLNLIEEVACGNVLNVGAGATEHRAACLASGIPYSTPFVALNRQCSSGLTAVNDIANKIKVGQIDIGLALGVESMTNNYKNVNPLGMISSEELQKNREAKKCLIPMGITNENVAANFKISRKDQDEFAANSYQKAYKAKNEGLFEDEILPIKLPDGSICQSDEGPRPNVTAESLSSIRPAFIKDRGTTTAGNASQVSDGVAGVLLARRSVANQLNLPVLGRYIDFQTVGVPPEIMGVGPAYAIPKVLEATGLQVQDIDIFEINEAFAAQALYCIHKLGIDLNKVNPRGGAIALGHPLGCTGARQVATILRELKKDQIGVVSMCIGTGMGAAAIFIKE

Results are given in words; binding and its absence hold for the method and conditions named. For some assays here: Binding can be weak; no strength is given. For some assays here: Sequences can lack the tags named with a protein.

The target in assay [1] is GST-tagged yeast PEX39 ∆APH (yeast) (UniProt P47087). In words: bead-binding assay (fluorescence on beads by spinning-disk confocal microscopy); glutathione beads incubated overnight with 5 µM GST–PEX39 (wild type or mutants), 5 µM yeast PEX7 and 1 µM PTS2–GFP; both purified.
Assay [2] has the same target. The experiment in a line: bead-binding assay (fluorescence on beads by spinning-disk confocal microscopy); GST-tagged protein on glutathione beads; GFP-fused partner in solution (1 µM each in Extended Data Fig. 9a); 1 h, RT; both purified.
Assay [3] shares this target. The experiment in a line: pull-down; quantitative: glutathione agarose with 1 µM yeast PEX7 and varying concentrations of GST-tagged PEX39 variants, Assay Buffer, 25 °C, 1 h; beads sedimented, PEX7 left in the supernatant quantified by SDS–PAGE and Coomassie; observed binding constants (Kobs); both purified.
Assay [4] has as its target GST-tagged yeast PEX39 ∆RPWE (yeast) (UniProt P47087). The assay is described as above.
For assay [5], the target named is GST-tagged yeast PEX39 ∆APH (yeast) (UniProt P47087). In words: pull-down; competition: glutathione beads with yeast PEX7 and GST-tagged PEX39 ∆APH (each 1 µM), 30 min at 25 °C, then varying concentrations of peptide for 1 h; beads sedimented, supernatant on SDS–PAGE with Coomassie; competitive-binding isotherm, observed binding constants (Kobs); both purified.

“GFP fused at the N terminus to the PTS2 signal (residues 1–27) from yeast POT1 (PTS2–GFP) (from UniProt P27796) (domain or fragment)”: in assay [1], the binding result is “no binding (tested: 1 µM)”.

B1: yeast PEX7 fused at the C terminus to GFP (PEX7–GFP) (protein, UniProt P39108 1-375)
chain: MLRYHMQGFSGYGVQYSPFFDNRLAVAAGSNFGLVGNGKLFILEIDRSGRIVEVNSFLTQDCLFDLAWNESHENQVLVAQGDGTLRLFDTTFKEFPIAIFKEHEREVFSCNWNLVNRQNFLSSSWDGSIKIWSPLRKQSLMTLTPRPLEITKMVDPLNAIILKKKSFTGISKNRNCVYQAQFSPHDQNLVLSCSGNSYASLFDIRLPSGKNQNNFLVHSGLEALTCDFNKYRPYVVATGGVDNAIRIWDIRMLNKNESATIKRTVPGQLHNSSCINEIPNAHGLAIRKVTWSPHHSNILMSASYDMTCRIWRDLSNDGAKETYKTNSTDATKGSIFNFTQHSEFVFGADWSLWGKPGYVASTAWDGNLFVWNGLG
With B1, the binding entry in assay [2] is “binds”.

B2: yeast PEX7 (protein, UniProt P39108 1-375)
chain: MLRYHMQGFSGYGVQYSPFFDNRLAVAAGSNFGLVGNGKLFILEIDRSGRIVEVNSFLTQDCLFDLAWNESHENQVLVAQGDGTLRLFDTTFKEFPIAIFKEHEREVFSCNWNLVNRQNFLSSSWDGSIKIWSPLRKQSLMTLTPRPLEITKMVDPLNAIILKKKSFTGISKNRNCVYQAQFSPHDQNLVLSCSGNSYASLFDIRLPSGKNQNNFLVHSGLEALTCDFNKYRPYVVATGGVDNAIRIWDIRMLNKNESATIKRTVPGQLHNSSCINEIPNAHGLAIRKVTWSPHHSNILMSASYDMTCRIWRDLSNDGAKETYKTNSTDATKGSIFNFTQHSEFVFGADWSLWGKPGYVASTAWDGNLFVWNGLG
As to B2, the binding entry in assay [3], in assay [4] and in assay [5] was “binds” throughout.
